Data reported in PMC12667501.
No constants are given. Whether binding was seen depends on the method and setting. In cells and extracts the contact can be indirect. Binding calls can cover weak binding; strength is not graded here. Tags and fused reporters may be left off the sequences shown.

Experiments:
[1] = target: Flag-tagged Btrc isoform △E3; experiment: co-IP; Myc-tagged Ube2r2 and Flag-tagged Btrc isoforms cotransfected into HEK293T cells for 48 h; lysates precipitated with anti-Flag antibody; Western blotting with anti-Myc and anti-Flag
[2] = target: Flag-tagged Btrc isoform △E2&3; experiment: as above

- binding [1]: binds
- binding [2]: binds
B1: Myc-tagged Ube2r2 (enzyme, UniProt Q6ZWZ2 1-238)
chain: MAQQQMTSSQKALMLELKSLQEEPVEGFRITLVDESDLYNWEVAIFGPPNTLYEGGYFKAHIKFPIDYPYSPPTFRFLTKMWHPNIYENGDVCISILHPPVDDPQSGELPSERWNPTQNVRTILLSVISLLNEPNTFSPANVDASVMFRKWRDSKGKDKEYAEIIRKQVSATKAEAEKDGVKVPTTLAEYCIKTKVPSNDNSSDLLYDDLYDDDIDDEDEEEEDADCYDDDDSGNEES
